These are yes or no findings as the source states them, for the method shown. Some entries that bind do so weakly or less than the wild type.
Molecular target: c-MET-Fc tag protein (UniProt P08581)
Experiment: ELISA on coated c-MET-Fc tag protein (4 ug/ml), biotinylated Hu-HGF 5 nM, streptavidin-HRP

Sequences of proteins named here, by UniProt entry; tags and fusion partners are left off. Residues count along the entry.
UniProt P08581, residues 25-932: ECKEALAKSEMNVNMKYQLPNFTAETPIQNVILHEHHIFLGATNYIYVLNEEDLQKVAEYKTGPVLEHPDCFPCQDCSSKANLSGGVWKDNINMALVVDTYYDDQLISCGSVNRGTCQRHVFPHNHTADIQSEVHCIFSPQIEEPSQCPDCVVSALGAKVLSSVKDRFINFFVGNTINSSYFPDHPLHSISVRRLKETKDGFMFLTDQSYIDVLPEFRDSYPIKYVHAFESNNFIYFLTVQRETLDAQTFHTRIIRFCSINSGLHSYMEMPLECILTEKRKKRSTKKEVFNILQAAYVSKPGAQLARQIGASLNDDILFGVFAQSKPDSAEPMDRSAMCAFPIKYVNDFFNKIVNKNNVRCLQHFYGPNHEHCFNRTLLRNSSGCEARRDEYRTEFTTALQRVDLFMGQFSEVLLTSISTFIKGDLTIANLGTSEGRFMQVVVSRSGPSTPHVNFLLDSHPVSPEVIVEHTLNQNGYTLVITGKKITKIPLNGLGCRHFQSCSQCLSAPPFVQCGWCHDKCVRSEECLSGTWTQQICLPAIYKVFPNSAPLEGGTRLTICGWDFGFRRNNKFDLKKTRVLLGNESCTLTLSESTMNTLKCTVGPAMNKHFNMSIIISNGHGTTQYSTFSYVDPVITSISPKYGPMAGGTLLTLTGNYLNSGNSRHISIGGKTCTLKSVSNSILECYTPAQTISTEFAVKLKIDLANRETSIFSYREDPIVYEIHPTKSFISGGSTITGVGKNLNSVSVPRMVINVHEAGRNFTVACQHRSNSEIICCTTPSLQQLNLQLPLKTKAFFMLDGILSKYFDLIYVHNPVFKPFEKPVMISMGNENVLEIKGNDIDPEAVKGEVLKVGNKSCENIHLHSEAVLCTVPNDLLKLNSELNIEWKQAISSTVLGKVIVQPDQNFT
UniProt P14210, residues 32-728: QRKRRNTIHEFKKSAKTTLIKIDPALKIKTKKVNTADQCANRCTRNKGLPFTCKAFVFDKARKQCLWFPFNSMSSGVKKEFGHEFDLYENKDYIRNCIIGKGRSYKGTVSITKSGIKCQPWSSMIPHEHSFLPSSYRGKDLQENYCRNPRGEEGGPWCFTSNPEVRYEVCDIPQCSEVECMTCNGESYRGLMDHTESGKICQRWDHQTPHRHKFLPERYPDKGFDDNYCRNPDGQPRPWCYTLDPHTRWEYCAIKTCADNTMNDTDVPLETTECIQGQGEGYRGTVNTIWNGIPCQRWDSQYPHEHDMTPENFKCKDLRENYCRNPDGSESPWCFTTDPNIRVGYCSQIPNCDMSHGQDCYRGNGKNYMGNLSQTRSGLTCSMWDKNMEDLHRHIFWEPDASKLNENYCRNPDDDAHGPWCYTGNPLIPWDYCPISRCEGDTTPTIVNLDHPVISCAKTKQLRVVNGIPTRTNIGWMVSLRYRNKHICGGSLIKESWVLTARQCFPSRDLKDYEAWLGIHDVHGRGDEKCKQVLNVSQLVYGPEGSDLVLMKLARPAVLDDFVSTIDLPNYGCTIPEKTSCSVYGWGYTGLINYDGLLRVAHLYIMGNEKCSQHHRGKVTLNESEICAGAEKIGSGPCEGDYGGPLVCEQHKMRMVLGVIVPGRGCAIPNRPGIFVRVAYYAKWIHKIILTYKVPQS

In the case of “biotinylated Hu-HGF protein (from UniProt P14210 32-728) (ligand)”, the binding was “binds”.
